Data from publication PMC7819943, “Rice protein-binding microarrays: a tool to detect cis-acting elements near promoter regions in rice”.
Some of the results follow.

Protein sequences, listed by entry. Tags and fused reporters are not part of them.
UniProt Q0JBA9, entry or part of it: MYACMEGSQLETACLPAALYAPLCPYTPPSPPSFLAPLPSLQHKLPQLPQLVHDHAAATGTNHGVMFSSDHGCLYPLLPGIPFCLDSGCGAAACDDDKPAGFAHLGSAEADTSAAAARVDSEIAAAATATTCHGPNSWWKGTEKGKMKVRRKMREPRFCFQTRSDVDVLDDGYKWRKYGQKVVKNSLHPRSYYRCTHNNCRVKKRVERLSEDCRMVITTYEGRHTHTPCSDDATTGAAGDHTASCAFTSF

Target: OsWRKY34 (Oryza sativa, UniProt Q0JBA9 1-250)
Test: protein-binding microarray (RPBM); PBS, 2% BSA, 51.3 ng/ul salmon testes DNA, 50 uM zinc acetate, 200 nM TF, 25 C, 1 h; high values mean tight binding
Settings: protein: recombinant; tags: N-terminal polyhistidine and DsRed monomer fusion (pET32a); label: CyDye5-dUTP incorporated in the synthesized complementary strand; 3' TTTTT single-stranded linker to array surface; dsDNA, one strand shown
In short: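 The binding signal for each feature is its fluorescence intensity in arbitrary units. An Axon 4000B scanner was used to read a custom Agilent array that had been made double-stranded with Cy5-dUTP primer extension, blocked with 2% BSA, incubated at 25 °C for 1 h with 200 nM protein in PBS, 2% BSA, salmon testes DNA and 50 µM zinc acetate, and washed. The protein was an N-terminal polyhistidine–DsRed transcription factor fusion from E. coli BL21-CodonPlus, purified on Ni–NTA.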

Question: With “CCTTTCCGTTTTTCTCCATTTCGCTGACACGGCACGCGCACGGAGTCACCTAGTGCAG” as the sequence, how does the binding signal read?
Answer: Its binding signal is 8890 fluorescence intensity (a.u.).

Question: For “ACAATCATACAATAATTCGTCGCTCCATTATTTGTGCCATCGGAGTCACCTAGTGCAG”, which binding signal is on record?
Answer: Its binding signal is 8120 fluorescence intensity (a.u.).

Question: “GCGAGCCGTATACATTGATATTCATGTAACTTTTACTTAACGGAGTCACCTAGTGCAG” was tested. Which binding signal did it give?
Answer: The binding signal was 8570 fluorescence intensity (a.u.).

Question: How did the binding signal turn out when “ATACCAACATTCTACCACCCCAGTTTCAAATTTTTTTTTTCGGAGTCACCTAGTGCAG” was run?
Answer: The binding signal was 9580 fluorescence intensity (a.u.).

Question: “ATTCCCGGGCCCGCACGTCAGCGTCAGCAACCCAGCCCAACGGAGTCACCTAGTGCAG” was tested. Which binding signal did it give?
Answer: The binding signal was 8470 fluorescence intensity (a.u.).

Question: How did the binding signal turn out when “ATCATCAATTTTTTCGCATGGTACTAAGTACGTATGTTTTCGGAGTCACCTAGTGCAG” was run?
Answer: The binding signal was 9010 fluorescence intensity (a.u.).

Question: With “CCCCTCACTCACATCACAGCCGCTTGTTCTCTTACCATTTCGGAGTCACCTAGTGCAG” as the sequence, how does the binding signal read?
Answer: Its binding signal is 11300 fluorescence intensity (a.u.).

Question: “TCCCATGCCCACTTTGCATTCTAATTCGACATCGCCAACACGGAGTCACCTAGTGCAG” was tested. Which binding signal did it give?
Answer: The binding signal was 8630 fluorescence intensity (a.u.).

Question: “GTCGTTTAACTATCCGTCTTATTTTTAAAAAATATGAATTCGGAGTCACCTAGTGCAG” was tested. Which binding signal did it give?
Answer: The binding signal was 8420 fluorescence intensity (a.u.).

Question: With “TACCACCCTTATCGATCTCTATCTGGTTTCCTTTACCTTTCGGAGTCACCTAGTGCAG” as the sequence, how does the binding signal read?
Answer: The binding signal was 8410 fluorescence intensity (a.u.).

Question: With “GCGCGCCAAGTTACCGTCATTGCACTCCGACTCCCGATTTCGGAGTCACCTAGTGCAG” as the sequence, how does the binding signal read?
Answer: Its binding signal is 12800 fluorescence intensity (a.u.).

Question: Which binding signal does the source give for “AATTTTAGTCTATGGTTGCTCACATTTTCTGTTAAATTTTCGGAGTCACCTAGTGCAG” here?
Answer: Its binding signal is 11700 fluorescence intensity (a.u.).

Question: “TATTTGCACAGCAACTTTGTATGGCCTTCTTTTTTCTTTTCGGAGTCACCTAGTGCAG” was tested. Which binding signal did it give?
Answer: Its binding signal is 8590 fluorescence intensity (a.u.).

Question: How did the binding signal turn out when “TCCCGTCTCCGCACCACACAGGCAGCCACACACACACCACCGGAGTCACCTAGTGCAG” was run?
Answer: Its binding signal is 8700 fluorescence intensity (a.u.).

Question: Which binding signal does the source give for “AAGAAAATCTACGCATACACCATTTTTCCTGTTTTTAAACCGGAGTCACCTAGTGCAG” here?
Answer: The binding signal was 8070 fluorescence intensity (a.u.).

Question: For “GTCCTGCCGCTTCCGCCGCATCCTGGTGAGCACATCCTCCCGGAGTCACCTAGTGCAG”, which binding signal is on record?
Answer: The binding signal was 8020 fluorescence intensity (a.u.).

Question: For “ATAATCCTCATAATTCCATCTATTCAGTTTGCTCCAAATTCGGAGTCACCTAGTGCAG”, which binding signal is on record?
Answer: The binding signal was 8120 fluorescence intensity (a.u.).

Question: With “ATATGTATATGTGGTTTTCTGATCTTCCATGTTTCACAAACGGAGTCACCTAGTGCAG” as the sequence, how does the binding signal read?
Answer: Its binding signal is 8720 fluorescence intensity (a.u.).

Question: How did the binding signal turn out when “AAGCTGACTCCACAACTTTTGTTCTAGTAGTATATTTCTTCGGAGTCACCTAGTGCAG” was run?
Answer: The binding signal was 14000 fluorescence intensity (a.u.).

Question: Which binding signal does the source give for “AGCAGATTGGTCTCTTTGACTCTCCTTGTGCGAGAGATTGCGGAGTCACCTAGTGCAG” here?
Answer: The binding signal was 8220 fluorescence intensity (a.u.).

Question: For “TGGTGACGATGGTGATGTTCTTGTTGTTGGTTTTTCCTTTCGGAGTCACCTAGTGCAG”, which binding signal is on record?
Answer: The binding signal was 9530 fluorescence intensity (a.u.).

Question: How did the binding signal turn out when “CAAACAGTTGCTCCTTTGTTATTATTCTTCCTTTCTCATTCGGAGTCACCTAGTGCAG” was run?
Answer: The binding signal was 12400 fluorescence intensity (a.u.).

Question: With “ACATCCTATGTCCAGATTCGTAGTACTAAGTTGATTTTTTCGGAGTCACCTAGTGCAG” as the sequence, how does the binding signal read?
Answer: The binding signal was 9420 fluorescence intensity (a.u.).

Question: For “TTTGATTTTTTTTCTAATTGTACTTTACTTTACATCATTTCGGAGTCACCTAGTGCAG”, which binding signal is on record?
Answer: The binding signal was 12200 fluorescence intensity (a.u.).

Question: With “ACCTCCGTGTCTTTATGTGATCTGTCTAGTTGACCCTATTCGGAGTCACCTAGTGCAG” as the sequence, how does the binding signal read?
Answer: Its binding signal is 11500 fluorescence intensity (a.u.).

Question: How did the binding signal turn out when “AGTTCCTGCTTACTGCCACCTAATCTGCCATTTTCTTTTTCGGAGTCACCTAGTGCAG” was run?
Answer: Its binding signal is 8860 fluorescence intensity (a.u.).

Question: With “GACTTGTCTTCCGAATTTCTATCTTTTGCCAGATCACCACCGGAGTCACCTAGTGCAG” as the sequence, how does the binding signal read?
Answer: The binding signal was 8400 fluorescence intensity (a.u.).

Question: Which binding signal does the source give for “TATTATTCTCGCAATGTCCTTAGCTCCACAAGCAGACCAACGGAGTCACCTAGTGCAG” here?
Answer: The binding signal was 8250 fluorescence intensity (a.u.).

Question: Which binding signal does the source give for “GTTAGCTAGGTGCTTCATCTTATTTTCTTATTTTGCATTTCGGAGTCACCTAGTGCAG” here?
Answer: Its binding signal is 11500 fluorescence intensity (a.u.).

Question: “ACAAGATAAAGGTGTGGTTTGTATGGGCTGCATATCATCACGGAGTCACCTAGTGCAG” was tested. Which binding signal did it give?
Answer: Its binding signal is 8030 fluorescence intensity (a.u.).

Question: “CCCGTCGTCGTCTCCTATTCGCTCTCCCGCCGCCTACAAACGGAGTCACCTAGTGCAG” was tested. Which binding signal did it give?
Answer: The binding signal was 10900 fluorescence intensity (a.u.).

Question: For “GAGTTTTTGGCTTAACCTCAAACCAATGTGCCATCATGTCCGGAGTCACCTAGTGCAG”, which binding signal is on record?
Answer: Its binding signal is 8180 fluorescence intensity (a.u.).

Question: For “ACATCGCCACATTACTCCGCCCTTTTAGACGCTTGTCTGCCGGAGTCACCTAGTGCAG”, which binding signal is on record?
Answer: The binding signal was 9890 fluorescence intensity (a.u.).

Question: Which binding signal does the source give for “CTCATCCTTTGGCACTACGGATTTTCTTGGCCAATGACCACGGAGTCACCTAGTGCAG” here?
Answer: Its binding signal is 8350 fluorescence intensity (a.u.).

Question: “TCTTCCTCTCTGTTTTGTCCTTCTGATTTCTGCCATTGATCGGAGTCACCTAGTGCAG” was tested. Which binding signal did it give?
Answer: Its binding signal is 9960 fluorescence intensity (a.u.).

Question: For “CCCCACGATTTGTCCTCACATGGCCACGCCCAGAACGGCCCGGAGTCACCTAGTGCAG”, which binding signal is on record?
Answer: Its binding signal is 9740 fluorescence intensity (a.u.).

Question: How did the binding signal turn out when “CTGGCGAGCAGAGCAAGGGAGGGGAGGGGAGGGGATCCTGCGGAGTCACCTAGTGCAG” was run?
Answer: The binding signal was 15500 fluorescence intensity (a.u.).

Question: With “AGACAGAAGTCACCTCCCTTACCTTCCCTTTTTCGAGATCCGGAGTCACCTAGTGCAG” as the sequence, how does the binding signal read?
Answer: The binding signal was 8100 fluorescence intensity (a.u.).

Question: “GTGGTGGTGTCATATGTCTCTGCTGCGATAGTAAATCCTACGGAGTCACCTAGTGCAG” was tested. Which binding signal did it give?
Answer: Its binding signal is 8570 fluorescence intensity (a.u.).

Question: For “GCCGCGCTCGCTCACCGCTGCTCCGCCGCCGCACTCGCGCCGGAGTCACCTAGTGCAG”, which binding signal is on record?
Answer: The binding signal was 8170 fluorescence intensity (a.u.).

Question: With “CACCATGCTAGTTTGTTGTAATAGGAGGGGTCATATTAGTCGGAGTCACCTAGTGCAG” as the sequence, how does the binding signal read?
Answer: Its binding signal is 8820 fluorescence intensity (a.u.).

Question: Which binding signal does the source give for “ATGAGTGGTTAGTTGCGTGTGGTGTCTTATTCATTTATCCCGGAGTCACCTAGTGCAG” here?
Answer: The binding signal was 9260 fluorescence intensity (a.u.).
